The list does not hold the whole screen: it is rich in T/C values a quarter to a half above the control, in often repeated tests (any T/C) and in doses without a T/C. Further doses and runs are listed elsewhere. T/C gives the treated animals as a percentage of the vehicle group. Some entries give survivors of the animals treated and no T/C: the source files T/C as zero there, which appears to mark a toxic dose or a test without result, not a measured value. Some survivor counts are full or nearly so, which does not show that the dose was tolerated: the source hardly ever lists a survival T/C far under the control, and the zero likely stands for such cases as well. Survivors were counted at the toxicity check, usually on the fifth day, unless a day is given; later deaths do not show. Schedule codes are those of the source, taken here to give the interval after Q, in days (D) or hours (H), and the number of doses after X. For survival time, the PubChem record calls one and a half times the control and up active, and a quarter to a half above the control has no call in these data; cut-offs in other NCI protocols can differ. Some entries hold several experiments; the values are given in rising order. Some T/C values carry the count of animals alive at the toxicity check (mostly the fifth day); without a count, all were alive then.
Tested on: P388 leukemia ip, CD2F1 mice, survival T/C
Experiment: NCI In Vivo Anticancer Drug Screen. Data for tumor model P388 Leukemia (intraperitoneal) in CD2F1 (CDF1) mice
Conditions: T/C endpoint: median survival time, higher T/C = longer survival
[1] = dose: 50.0 mg/kg/injection, schedule: Q01DX009 (ip), vehicle: saline with Tween-80
[2] = dose: 100.0 mg/kg/injection, schedule: Q01DX009 (ip), vehicle: saline with Tween-80
[3] = dose: 200.0 mg/kg/injection, schedule: Q01DX009 (ip), vehicle: saline with Tween-80
[4] = dose: 100.0 mg/kg/injection, schedule: Q01DX005 (ip), vehicle: Klucel (hydroxypropylcellulose) (HPC)
[5] = dose: 25.0 mg/kg/injection, schedule: Q04DX002 (ip), vehicle: saline with Tween-80
[6] = dose: 240.0 mg/kg/injection, schedule: Q01DX005 (ip), vehicle: saline with Tween-80
[7] = dose: 200.0 mg/kg/injection, schedule: Q01DX001 (ip), vehicle: saline with Tween-80
[8] = dose: 400.0 mg/kg/injection, schedule: Q01DX001 (ip), vehicle: saline with Tween-80
[9] = dose: 200.0 mg/kg/injection, schedule: Q01DX005 (ip), vehicle: saline
[10] = dose: 120.0 mg/kg/injection, schedule: Q01DX005 (ip), vehicle: saline with Tween-80
[11] = dose: 25.0 mg/kg/injection, schedule: Q01DX009 (ip), vehicle: saline with Tween-80
[12] = dose: 200.0 mg/kg/injection, schedule: Q01DX009 (ip), vehicle: distilled water + Tween-80

## CC1CCC(C(C)C)C(N)C1 (stereo not given)
dose: 200.0 mg/kg/injection, schedule: Q04DX002 (ip), vehicle: saline with Tween-80
  survivor count: 2 of 6
dose: 400.0 mg/kg/injection, schedule: Q04DX002 (ip), vehicle: saline with Tween-80
  survivor count: 0 of 6

## NC(=O)C1CCCN1C(=O)C1CCCN(CCCCCCN2CCCC(C(=O)N3CCCC3C(N)=O)C2)C1 (stereo not given)
dose: 240.0 mg/kg/injection, schedule: Q01DX005 (ip), vehicle: saline
  survivor count: 3 of 6

## CN(C)CCCNc1ccc(O)c2sc3ccccc3c(=O)c12
[1]
  survivor count: 6 of 6
[2]
  survivor count: 4 of 6
[3]
  survivor count: 0 of 6

## Cc1cn(CCCCCCCCCCCCOc2c3occc3cc3ccc(=O)oc23)c(=O)[nH]c1=O
dose: 50.0 mg/kg/injection, schedule: Q01DX005 (ip), vehicle: Klucel (hydroxypropylcellulose) (HPC)
  survivor count: 6 of 6
[4]
  survivor count: 6 of 6

## COC(=O)C1CC2C(=O)N(C)C(Br)C(Br)C12 (stereo not given)
dose: 400.0 mg/kg/injection, schedule: Q04DX002 (ip), vehicle: saline
  survivor count: 2 of 6

## CC1(C)O[C@@H]2C[C@H]3[C@@H]4CCC5=CC(=O)C=C[C@]5(C)[C@@]4(F)[C@@H](O)C[C@]3(C)[C@]2(C(=O)CO)O1
[1]
  survivor count: 6 of 6

## NC(=O)c1ncn(C2OC(CO)C(O)C2O)n1 (stereo not given)
dose: 160.0 mg/kg/injection, schedule: Q01DX009 (ip), vehicle: saline
  T/C: 129 and 132 % of control
dose: 320.0 mg/kg/injection, schedule: Q01DX009 (ip), vehicle: saline
  survivor count: 6 of 6

## [Cl][Pt+2][Cl].[NH-]c1ccc([N+](=O)[O-])cc1[NH-]
[5]
  T/C: 137 % of control

## O=c1oc(-c2ccc(Cl)cc2Cl)nc2cc(Cl)ccc12
[6]
  survivor count: 0 of 6

## CCN(CC)c1c(C)nnc2c3cccnc3nn12
[7]
  survivor count: 0 of 6
[8]
  survivor count: 0 of 6

## O=C(O)C(Cc1cccc(F)c1)NC(=O)C(F)(F)F (stereo not given)
dose: 12.5 mg/kg/injection, schedule: Q01DX009 (ip), vehicle: saline
  survivor count: 1 of 6
dose: 25.0 mg/kg/injection, schedule: Q01DX009 (ip), vehicle: saline
  survivor count: 0 of 6
[1]
  survivor count: 0 of 6
[2]
  survivor count: 0 of 6
[3]
  survivor count: 0 of 6

## CCCC1(CC(=O)O)OCCc2c1[nH]c1ccccc21 (stereo not given)
dose: 200.0 mg/kg/injection, schedule: Q01DX009 (ip), vehicle: Klucel (hydroxypropylcellulose) (HPC)
  survivor count: 3 of 6

## CC(=O)N=c1sccn1CC(=O)c1ccccc1
dose: 100.0 mg/kg/injection, schedule: Q04DX003 (ip), vehicle: Klucel (hydroxypropylcellulose) (HPC)
  survivor count: 6 of 6

## CC(O)C1CCNCC1 (stereo not given)
[9]
  survivor count: 2 of 6

## O=C(O)c1ccccc1SCCO
dose: 100.0 mg/kg/injection, schedule: Q01DX009 (ip), vehicle: Klucel (hydroxypropylcellulose) (HPC)
  survivor count: 3 of 6

## Clc1ccnc2ccc3ncccc3c12
[5]
  survivor count: 2 of 6
dose: 50.0 mg/kg/injection, schedule: Q04DX002 (ip), vehicle: saline with Tween-80
  survivor count: 0 of 6
dose: 100.0 mg/kg/injection, schedule: Q04DX002 (ip), vehicle: saline with Tween-80
  survivor count: 0 of 6

## COC(=O)C1=C(C(=O)OC)C2OC1c1cc3ccccc3cc12
dose: 60.0 mg/kg/injection, schedule: Q01DX005 (ip), vehicle: saline with Tween-80
  survivor count: 4 of 6
[10]
  survivor count: 0 of 6
[6]
  survivor count: 0 of 6

## CCC(O)(c1ccccc1)C(O)c1ccccc1 (stereo not given)
dose: 200.0 mg/kg/injection, schedule: Q01DX009 (ip), vehicle: saline + alcohol
  T/C: 138 % of control [5 of 6 alive]
dose: 400.0 mg/kg/injection, schedule: Q01DX009 (ip), vehicle: saline + alcohol
  survivor count: 3 of 6

## Nc1nc(C[P+](c2ccccc2)(c2ccccc2)c2ccccc2)c(CCCCc2ccccc2)c(=O)[nH]1
[4]
  survivor count: 2 of 6
dose: 200.0 mg/kg/injection, schedule: Q01DX005 (ip), vehicle: Klucel (hydroxypropylcellulose) (HPC)
  survivor count: 0 of 6

## CCNC(=O)OCc1c(COC(=O)NCC)c(-c2ccc(Cl)c(Cl)c2)n2c1CCC2
dose: 5.0 mg/kg/injection, schedule: Q01DX009 (ip), vehicle: distilled water + Tween-80
  T/C: 145 % of control
[11]
  T/C: 127 % of control
dose: 40.0 mg/kg/injection, schedule: Q01DX009 (ip), vehicle: distilled water + Tween-80
  survivor count: 6 of 6
[1]
  survivor count: 3 of 6
[2]
  survivor count: 2 of 6
[3]
  survivor count: 0 of 6
dose: 400.0 mg/kg/injection, schedule: Q01DX009 (ip), vehicle: saline with Tween-80
  survivor count: 0 of 6

## COc1cc(CBr)ccc1OCc1ccccc1
[12]
  survivor count: 1 of 6
dose: 400.0 mg/kg/injection, schedule: Q01DX009 (ip), vehicle: distilled water + Tween-80
  survivor count: 0 of 6

## COc1ccc2c(c1OC(C)=O)-c1cc(OC(C)=O)cc3c1C(C2)N(C(=O)CBr)CC3 (stereo not given)
[11]
  survivor count: 6 of 6
[1]
  survivor count: 2 of 6

## Brc1ccc(CC[P+](c2ccccc2)(c2ccccc2)c2ccccc2)cc1
dose: 200.0 mg/kg/injection, schedule: Q04DX003 (ip), vehicle: Klucel (hydroxypropylcellulose) (HPC)
  survivor count: 0 of 6
dose: 400.0 mg/kg/injection, schedule: Q04DX003 (ip), vehicle: Klucel (hydroxypropylcellulose) (HPC)
  survivor count: 0 of 6

## CCN(CC)CC(CN(CC)CC)N(CCO)CC(C)C
[9]
  survivor count: 0 of 5

## CCS(=O)(=O)OCCCNCCCOS(=O)(=O)CC
dose: 50.0 mg/kg/injection, schedule: Q01DX001 (ip), vehicle: saline
  T/C: 136 % of control
dose: 400.0 mg/kg/injection, schedule: Q04DX003 (ip), vehicle: saline
  survivor count: 5 of 6
dose: 800.0 mg/kg/injection, schedule: Q01DX001 (ip), vehicle: saline
  survivor count: 2 of 6

## Cc1cccc(Nc2nnc3nc(-c4ccccc4)c(-c4ccccc4)nn23)c1
[7]
  survivor count: 6 of 6
[8]
  survivor count: 6 of 6

## CC12CC3CC(C)(C1)CC(OCCN)(C3)C2
[6]
  survivor count: 0 of 6

## O=C1CC[C@@H](NC(=O)Cc2ccccc2)C(=O)N1
[10]
  survivor count: 6 of 6
[6]
  survivor count: 6 of 6
dose: 250.0 mg/kg/injection, schedule: Q01DX005 (ip), vehicle: saline with Tween-80
  survivor count: 6 of 6
dose: 500.0 mg/kg/injection, schedule: Q01DX005 (ip), vehicle: saline with Tween-80
  survivor count: 6 of 6
dose: 1000.0 mg/kg/injection, schedule: Q01DX005 (ip), vehicle: saline with Tween-80
  survivor count: 6 of 6
dose: 2000.0 mg/kg/injection, schedule: Q01DX005 (ip), vehicle: saline with Tween-80
  survivor count: 2 of 6

## COc1cc(C2c3cc4c(cc3C(=O)C(C)C2C)OCO4)ccc1O (stereo not given)
dose: 300.0 mg/kg/injection, schedule: Q01DX005 (ip), vehicle: Klucel (hydroxypropylcellulose) (HPC)
  survivor count: 6 of 6

## N#CC1(C#N)C(c2ccccc2)C1(C#N)C#N
dose: 25.0 mg/kg/injection, schedule: Q04DX003 (ip), vehicle: saline sonified
  T/C: 130 % of control
dose: 37.5 mg/kg/injection, schedule: Q04DX003 (ip), vehicle: saline with Tween-80
  survivor count: 4 of 6

## COC(=O)c1cnc(N)n1C
dose: 25.0 mg/kg/injection, schedule: Q01DX009 (ip), vehicle: distilled water + Tween-80
  survivor count: 5 of 5
dose: 50.0 mg/kg/injection, schedule: Q01DX009 (ip), vehicle: distilled water + Tween-80
  survivor count: 0 of 5
dose: 100.0 mg/kg/injection, schedule: Q01DX009 (ip), vehicle: distilled water + Tween-80
  survivor count: 0 of 5
[12]
  survivor count: 0 of 5

## COc1ccc([N+]2=Cc3cc(OC)c(OC)cc3CC2)cc1OC
dose: 200.0 mg/kg/injection, schedule: Q01DX009 (ip), vehicle: water
  survivor count: 5 of 6
dose: 400.0 mg/kg/injection, schedule: Q01DX009 (ip), vehicle: water
  survivor count: 0 of 6

From PubChem BioAssay AID330 (DTP/NCI, 2004)
